From paper PMC9616502
These are yes or no findings as the source states them, for the method shown. Binding seen in cells or lysates may run through a third protein. Some binding calls cover weakened binding; strength is not graded here.

Protein sequences, listed by entry. Tags and fused reporters are not part of them.
UniProt G3X9G7: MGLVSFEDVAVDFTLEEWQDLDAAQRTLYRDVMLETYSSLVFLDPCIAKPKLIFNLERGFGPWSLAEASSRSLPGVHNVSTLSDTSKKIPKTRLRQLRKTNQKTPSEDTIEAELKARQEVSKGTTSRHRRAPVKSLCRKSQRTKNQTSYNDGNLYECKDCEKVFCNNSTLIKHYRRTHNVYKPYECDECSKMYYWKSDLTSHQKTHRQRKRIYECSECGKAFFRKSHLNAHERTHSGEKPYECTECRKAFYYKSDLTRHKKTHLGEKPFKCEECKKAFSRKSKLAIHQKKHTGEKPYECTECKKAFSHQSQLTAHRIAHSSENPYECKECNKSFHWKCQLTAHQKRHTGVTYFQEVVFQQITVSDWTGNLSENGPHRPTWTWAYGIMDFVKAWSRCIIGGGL
UniProt Q13263: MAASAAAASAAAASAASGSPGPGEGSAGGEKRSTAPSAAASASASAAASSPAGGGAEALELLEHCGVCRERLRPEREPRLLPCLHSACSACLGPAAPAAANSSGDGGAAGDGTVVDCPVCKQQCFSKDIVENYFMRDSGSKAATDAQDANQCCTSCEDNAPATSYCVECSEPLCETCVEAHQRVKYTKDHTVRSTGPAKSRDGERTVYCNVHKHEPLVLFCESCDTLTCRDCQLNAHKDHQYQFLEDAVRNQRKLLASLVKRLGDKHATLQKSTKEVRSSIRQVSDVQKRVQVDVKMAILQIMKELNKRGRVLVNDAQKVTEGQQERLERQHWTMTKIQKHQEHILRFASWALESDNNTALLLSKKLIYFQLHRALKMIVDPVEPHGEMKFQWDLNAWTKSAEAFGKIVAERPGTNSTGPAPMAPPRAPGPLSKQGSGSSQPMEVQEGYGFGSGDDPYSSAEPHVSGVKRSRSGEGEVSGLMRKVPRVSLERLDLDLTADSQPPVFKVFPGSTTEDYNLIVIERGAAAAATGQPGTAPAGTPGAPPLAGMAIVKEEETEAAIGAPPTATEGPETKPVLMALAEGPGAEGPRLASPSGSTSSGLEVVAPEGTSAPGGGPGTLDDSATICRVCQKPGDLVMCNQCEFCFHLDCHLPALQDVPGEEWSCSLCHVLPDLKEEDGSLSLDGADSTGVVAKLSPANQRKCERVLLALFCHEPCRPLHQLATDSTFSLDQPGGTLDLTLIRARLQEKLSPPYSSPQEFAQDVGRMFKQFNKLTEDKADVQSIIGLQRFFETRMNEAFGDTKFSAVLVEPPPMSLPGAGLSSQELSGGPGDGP

Molecular target: ZFP809, HA-tagged (UniProt G3X9G7)
Test: co-IP; HEK293T cells transfected with HA-tagged ZFP plasmids, lysed on day 2 in 0.1% NP-40 buffer (50 mM tris-HCl pH 7.5, 150 mM NaCl, 10% glycerol, protease inhibitors); immunoprecipitated on anti-HA magnetic beads at 4°C overnight; Western blot for TRIM28

binding: binds
Substance: KRAB-associated protein 1 (TRIM28) (from UniProt Q13263 1-835)
